PubChem BioAssay AID1508597, Cure First – 2020

- Assay: 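Survival screen with siRNA in ovarian cancer cells derived from patients, with or without rucaparib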 (primary screen)
- Cells: human ovarian carcinoma lines grown from tumours: OCI-P5x (papillary serous) and OCI-C5x (clear cell)
- Reagents: siRNA pool against human genes, 1.25 pmol siRNA per well
- Timing: 72 h or 96 h, depending on the cell culture
- Challenge: rucaparib 20 µM (about IC30) or vehicle, present until read-out
- Rucaparib or vehicle: Rucaparib
- Cell line: OCI-P5x (serous)
- Detection: 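Luminescent ATP-based viability assay read 72 or 96 h after transfection, depending on culture, given as normalised percent viability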
- Reading the numbers: viability, normalised: higher = more viable cells remaining
- Call rule: 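a well counts as a hit if its normalised viability is under 80 percent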
- Meaning of the calls: active = viability under 80%; inactive = viability 80% or more
This is a random part of the about 2,100 reagents, in one setting of the screen. 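Calls flag viability under 80% in either arm, not effects specific to rucaparib; the reference for percent is not stated.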 Unmarked entries are inactive. A reagent listed more than once was tested more than once; the source does not tell the runs apart. No sequences are given here. The record does not give: the 100% reference.

target | technical replicate | viability, normalised (%)
ROCK1 | 1 | 99.1
ROCK1 | 2 | 102
ROCK1 | 3 | 104
TFRC | 1 | 75.8 (active)
TFRC | 2 | 69.2 (active)
TFRC | 3 | 83
EPHA2 | 1 | 63.7 (active)
EPHA2 | 2 | 68.1 (active)
EPHA2 | 3 | 59.8 (active)
CTBP1-DT | 1 | 85.7
CTBP1-DT | 2 | 97.6
CTBP1-DT | 3 | 103
KDM4C | 1 | 53.9 (active)
KDM4C | 2 | 41.4 (active)
KDM4C | 3 | 50.8 (active)
HSPA5 | 1 | 71.7 (active)
HSPA5 | 2 | 85.4
HSPA5 | 3 | 49.6 (active)
AURKC | 1 | 95.7
AURKC | 1 | 58 (active)
AURKC | 2 | 76.2 (active)
AURKC | 2 | 57.8 (active)
AURKC | 3 | 69.7 (active)
AURKC | 3 | 88.2
NBL1 | 1 | 93
NBL1 | 2 | 64.8 (active)
NBL1 | 3 | 85.2
FES | 1 | 66.6 (active)
FES | 2 | 76 (active)
FES | 3 | 83.4
RAD54B | 1 | 62.5 (active)
RAD54B | 1 | 95.5
RAD54B | 2 | 105
RAD54B | 2 | 56.1 (active)
RAD54B | 3 | 56.8 (active)
RAD54B | 3 | 85
SETDB1 | 1 | 39.7 (active)
SETDB1 | 2 | 51.5 (active)
SETDB1 | 3 | 53.9 (active)
CABIN1 | 1 | 69.3 (active)
CABIN1 | 2 | 62.4 (active)
CABIN1 | 3 | 71.9 (active)
LIG3 | 1 | 50.6 (active)
LIG3 | 2 | 35.7 (active)
LIG3 | 3 | 49.7 (active)
EIF4A2 | 1 | 53.2 (active)
EIF4A2 | 2 | 45.9 (active)
EIF4A2 | 3 | 56.2 (active)

Continued, starting with the last 10 of the part before.
target | technical replicate | viability, normalised (%)
SETDB1 | 3 | 53.9 (active)
CABIN1 | 1 | 69.3 (active)
CABIN1 | 2 | 62.4 (active)
CABIN1 | 3 | 71.9 (active)
LIG3 | 1 | 50.6 (active)
LIG3 | 2 | 35.7 (active)
LIG3 | 3 | 49.7 (active)
EIF4A2 | 1 | 53.2 (active)
EIF4A2 | 2 | 45.9 (active)
EIF4A2 | 3 | 56.2 (active)
RIPK4 | 1 | 84.4
RIPK4 | 2 | 89.8
RIPK4 | 3 | 74 (active)
BMP7 | 1 | 81.6
BMP7 | 2 | 115
BMP7 | 3 | 77.2 (active)
KPNA4 | 1 | 74.2 (active)
KPNA4 | 2 | 81.8
KPNA4 | 3 | 62.6 (active)
DHFR | 1 | 75.7 (active)
DHFR | 2 | 106
DHFR | 3 | 90.1
MTF2 | 1 | 65.7 (active)
MTF2 | 2 | 54.3 (active)
MTF2 | 3 | 75.7 (active)
JADE2 | 1 | 29.4 (active)
JADE2 | 2 | 34.5 (active)
JADE2 | 3 | 30 (active)
SMARCC1 | 1 | 51.1 (active)
SMARCC1 | 2 | 60 (active)
SMARCC1 | 3 | 54 (active)
FANCA | 1 | 96.8
FANCA | 2 | 107
FANCA | 3 | 88.1
PKMYT1 | 1 | 102
PKMYT1 | 2 | 95.4
PKMYT1 | 3 | 101
